The campaign covered roughly 340,000 compounds. About 170 (0.05%) were called active. The inconclusive results got no clear call from the source; some entries with a clear call stand among them for comparison. Calls follow the shape of the dose curve; as a rule, active = well fitted inhibition curve with a large enough effect in the signal ratio, with a control signal flat (not every such curve was filed as active); inconclusive = small, poorly fitted or top-dose-only effect, or effect the other way, or a change in a side signal; inactive = flat fitted curve, though single readings scatter; the % refers to the signal ratio. A potency beside an inconclusive call is a rough fit, not a confirmed value.
Test: qHTS Assay to Find Inhibitors of Chronic Active B-Cell Receptor Signaling;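 as to activity change, negative = inhibition: plate controls were basal doxycycline-induced cells for no effect and cells given 10 µM MG132 for full effect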
Conditions: ABC-DLBCL IkBa-CBG/CBR reporter, luminescence ratio (green luciferase fused to IkBa over red control in TMD8 lymphoma cells), 4 h; activity change, negative = inhibition: at 46.1 µM (top of the series)
Summary of the method: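 Cell line TMD8 (human ABC DLBCL), stably expressing tet-inducible CBG68-IkBa fusion and CBR; IMDM/0.5% FBS; cpd up to 46 uM; dox induction, 4 h, 37C/5% CO2; dual luminescence; green/red ratio; MG132 control.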
Potency is read from the fitted curve at half-maximal effect.

Compound	Potency	activity change, negative = inhibition
CCCCNC(=O)CC1N=C2c3ccccc3N=C(SCC(=O)Nc3ccccc3C)N2C1=O (configuration not stated)	inconclusive: 2.91 µM [rising, partial curve, poor fit]	
Cc1csc(NC(=O)CSc2nnc(-c3ccoc3C)o2)n1	inconclusive: 29.1 µM [falling, single point]	
Cc1nnc(SCC(=O)N(C)C2CCCCC2)n1C		inconclusive: 2.63%
Nc1ccccc1Sc1nc2ccccc2[nH]1		inconclusive: 23.2%
COc1ccc2c(c1)C(=O)N(c1ccccc1OC)C(=O)C2(C)C		inconclusive: -1.02%
COc1ccc(N2CC(NC(=O)COc3ccccc3C)CC2=O)cc1OC (configuration not stated)		inactive: -6.55%
C#CCOc1ccc2c(C)cc(=O)oc2c1		inconclusive: -19.7%
O=C(NCc1ccccc1)C1=C[C@@H](c2csc3ccccc23)C[C@@H](OCCCCO)O1		inconclusive: -14.7%
Cc1ccc(NC(=S)N2CCC(c3ccccc3)C2)c(Cl)c1 (configuration not stated)		inconclusive: 1.78%
NNC(=O)c1ccc([N+](=O)[O-])c(CS(=O)(=O)c2ccc(Cl)cc2)c1		inconclusive: -0.658%
CC(=O)Nc1cccc(NC(=O)Nc2ccc(C(C)=O)cc2)c1	inconclusive: 18.4 µM [falling, partial curve]	
O=C(NCCc1ccccc1)C1CCC(Cn2c(=O)c3ccccc3n(Cc3cccc(F)c3)c2=O)CC1 (configuration not stated)		inactive: -0.006%
O=C(O)C(Cc1c[nH]c2ccccc12)N1Cc2ccccc2C1=O (configuration not stated)	inconclusive: 15.8 µM [falling, partial curve, poor fit]	
O=C(NC(=S)NCC1CCCO1)c1ccccc1 (configuration not stated)		inconclusive: 10.6%
N#C/C(=C\c1c(N2CCCCC2)nc2ccccn2c1=O)S(=O)(=O)c1ccccc1		inconclusive: 28.4%
Cc1ccc(S(=O)(=O)C2C(=O)NC3(C)CC2c2ccccc2O3)cc1 (configuration not stated)		inconclusive: -10.6%
CCC(C)NC(=O)c1cc(-c2ccc(OC)cc2)on1 (configuration not stated)	inconclusive: 20.6 µM [falling, partial curve]	
CN(C)c1ccc(/C=N/Nc2ccc(-n3ccnc3)nn2)cc1		inconclusive: 26.3%
COc1ccc(NC(=S)N(CCO)Cc2cc3c(C)cc(C)cc3[nH]c2=O)cc1		inconclusive: -6.17%
CCOC(=O)/C=C/C(=O)OCC(=O)Nc1ccc([N+](=O)[O-])cc1		inconclusive: 1.72%
c1ccc2c(c1)CNC1(CCCCC1)C2		inconclusive: -1.11%

Another view of 2 compounds above.

| Compound | Potency | activity change, negative = inhibition |
| --- | --- | --- |
| CC(=O)Nc1cccc(NC(=O)Nc2ccc(C(C)=O)cc2)c1 | inconclusive: 18.4 µM [falling, partial curve] |  |
| O=C(NCCc1ccccc1)C1CCC(Cn2c(=O)c3ccccc3n(Cc3cccc(F)c3)c2=O)CC1 (configuration not stated) |  | inactive: -0.006% |

Remaining list, next part:

Compound	Potency	activity change, negative = inhibition
COc1cc(/C=C2\SC(=Nc3ccc(Cl)c(C(=O)O)c3)NC2=O)c(Br)c(Br)c1O		inactive: 3.75%
Cc1ccc(C)c(NC(=S)N/N=C/C(C)c2ccccc2)c1 (configuration not stated)		inconclusive: -2.69%
CCOC(=O)c1c(C)c(C(=O)Nc2ccc(N(C)C)cc2)c(C)n1CC		inactive: 0.714%
COc1ccc(CCNC(=O)CNC(=O)c2ccc(Br)o2)cc1OC		inactive: -3.46%
COC(=O)c1cc2c(ccn2-c2ccc(F)cc2)n1Cc1ccc(C#N)cc1		inconclusive: 1.82%
CC(=O)Nc1ccc(Nc2ccc(N3C(=O)CCCC3=O)cc2[N+](=O)[O-])cc1		inconclusive: -1.22%
COc1ccc(-c2cn3c(C)c(C(=O)NCCN4CCOCC4)sc3n2)cc1	inconclusive: 35.5 µM [rising, single point]	
CC(C)(O)C#Cc1ccc(C(=O)N2CCN(c3ccc(F)cc3)CC2)cc1		inconclusive: -24.1%
C=C(C)C(=O)Oc1ccc(N2C(=O)CCC2=O)cc1		inconclusive: -1.4%
COc1ccc(OCCC(=O)OCC(=O)NCc2ccco2)cc1		inconclusive: -0.639%
CC(=O)Nc1nnc(SCc2ccc(C(=O)Nc3ccccc3F)cc2)s1	inconclusive: 5.01 µM [falling, partial curve]	
CC1(C)CC(NC(=O)C2CCCCC2)CC(C)(C)N1	inconclusive: 25.1 µM [falling, single point]	
CCCCn1nnc(NC(=O)c2ccc(-c3cccc(Cl)c3)o2)n1		inconclusive: -1.17%
COc1ccc(C(=O)NCCSc2ccccc2)cc1		inconclusive: 7.45%
Cc1cc(NC(=O)COC(=O)CCCOc2ccc(Cl)cc2C)no1		inactive: 7.51%
COc1ccc(NC2CC(=O)N(c3cccc([N+](=O)[O-])c3)C2=O)cc1 (configuration not stated)		inconclusive: 24.6%
COc1ccccc1OCc1ccc(C(=O)c2ccccc2)cc1	inconclusive: 35.5 µM [falling, partial curve, poor fit]	
Cc1occc1C(=O)N/N=C/c1ccc(OCc2ccccc2)cc1	inconclusive: 20 µM [falling, partial curve]	
CCCCSc1nnc2c(n1)OC=Nc1ccccc1-2	inconclusive: 25.1 µM [falling, single point]	
CCc1ccccc1NC(=S)NN	inconclusive: 35.5 µM [falling, single point]	
C/C(=N\NC(=O)c1cccc(N/N=C(\C)c2ccc([N+](=O)[O-])cc2)c1)c1ccc([N+](=O)[O-])cc1	inconclusive: 20 µM [falling, single point]	

Compound	Potency	activity change, negative = inhibition
CCN(c1ccccc1)S(=O)(=O)c1ccc(OC)c(NC(=O)Cc2ccc(F)cc2)c1		inactive: -0.892%
COc1cc(C2Nc3ccccc3C(=O)N2c2ccc3c(c2)OCCO3)ccc1OCC(C)C (configuration not stated)	inconclusive: 29.1 µM [falling, single point]	
COc1ccc(/C(N)=N/OC(=O)c2cccs2)cc1	inconclusive: 35.5 µM [falling, single point]	
C=C(C)[C@@H]1CCC2(C(=O)O)CC[C@]3(C)[C@H](CC[C@@H]4[C@@]5(C)CCC(=O)C(C)(C)[C@@H]5CC[C@]43C)[C@@H]12 (some centres not stated)		inactive: -5.06%
CCOc1ccccc1OCC(=O)NCc1ccco1		inactive: 0.502%
COc1cc(SC)ccc1C(=O)Nc1nc2ccccc2[nH]1		inconclusive: 200%
COc1ccccc1CNC(=O)CCC1N=C2c3ccccc3N=C(SCc3ccccc3Cl)N2C1=O (configuration not stated)		inactive: -22.4%
Nc1nnc(-c2ccccc2[N+](=O)[O-])o1	inconclusive: 22.4 µM [falling, single point]	
c1cn2c(Nc3ccc4c(c3)OCCO4)c(-c3ccc(N4CCOCC4)cc3)nc2cn1	inconclusive: 35.5 µM [falling, partial curve, poor fit]	
COc1ccc(C(CC(=O)Nc2ccc(C)cn2)N2Cc3ccccc3C2=O)cc1 (configuration not stated)		inconclusive: 1.88%
COc1ccc2oc(C)c(C(=O)c3ccc(C)cc3)c2c1		inconclusive: 8.35%
Cc1ccc(NC2c3ncccc3C(=O)N2Cc2cccs2)cc1C (configuration not stated)		inactive: -0.0845%
ClCc1csc(-c2ccc(Cl)cc2)n1		inconclusive: 1.81%
CC1CCCN(S(=O)(=O)c2ccc(NC(=O)CN3CCN(C)CC3)cc2)C1 (configuration not stated)		inconclusive: -1.57%
CCOC(=O)N1CCN(CC(O)COc2ccc(OC)cc2C(C)(C)C)CC1 (configuration not stated)		inactive: -0.845%
CCOC(=O)Cc1csc(NC(=O)c2cc3ccccc3o2)n1	inconclusive: 11.2 µM [falling, partial curve]	
Cc1cccc(C(=O)N2CCc3cc(-c4nc(NC(=O)CN5CCCC5)sc4C)ccc32)c1		inactive: -6.69%
O=C(NCc1ccc(Cl)cc1)c1n[nH]c([N+](=O)[O-])c1Cl		inactive: -15.3%
Oc1c(C(c2ccc(Cl)cc2)N2CCCC2)cc(Cl)c2cccnc12 (configuration not stated)		inconclusive: -13.3%
COc1cc(OC)c(C2SCCS2)c(OC)c1		inconclusive: -6.31%
COCc1cc(=O)[nH]c(/N=C(\N)Nc2ccc(Oc3ccccc3)cc2)n1	inconclusive: 0.282 µM [falling, full curve, poor fit]	

Some of the entries so far, in CSV form:
Compound,Potency,"activity change, negative = inhibition"
C=C(C)[C@@H]1CCC2(C(=O)O)CC[C@]3(C)[C@H](CC[C@@H]4[C@@]5(C)CCC(=O)C(C)(C)[C@@H]5CC[C@]43C)[C@@H]12 (some centres not stated),,inactive: -5.06%
COc1cc(OC)c(C2SCCS2)c(OC)c1,,inconclusive: -6.31%

Following part:

Compound	Potency	activity change, negative = inhibition
CCN(c1ccccc1)S(=O)(=O)c1ccc(C(=O)NC2CCN(Cc3ccccc3)CC2)cc1	inconclusive: 23.1 µM [falling, partial curve, poor fit]	
CCN(CC)c1nc(=S)nc(NC(C)(C)C)[nH]1		inconclusive: -0.544%
COc1cccc(-c2nnc(-c3ccco3)o2)c1		inconclusive: -18.8%
Nc1nc(NCc2ccc(Cl)cc2)nc(NCCO)c1[N+](=O)[O-]		inconclusive: -6.2%
COc1cccc(-c2[nH]nc3c2C(c2ccc(C)o2)C(C#N)=C(N)O3)c1 (configuration not stated)		inconclusive: -9.29%
C/C(CC(=O)Nc1ccc(Cl)cn1)=N\NC(=O)Cc1cccs1	inconclusive: 35.5 µM [falling, single point]	
C=CCN1C(=O)C(C)(C)N(C(C)=O)c2ccccc21		inactive: -1.52%
CCOc1ccc(Br)cc1C(=O)N/N=C/c1cccnc1	inconclusive: 35.5 µM [falling, single point]	
O=C(NCc1ccccc1Cl)c1ccc(CSCc2cccc(F)c2)o1		inactive: 4.89%
CN(Cc1cccc(Cl)c1Cl)c1ccc(S(=O)(=O)N2CCCCC2)cc1[N+](=O)[O-]		inactive: 5.02%
C=CCn1c(SCc2c(C)noc2C)nc2sc(C)c(C)c2c1=O		inconclusive: -11.3%
O=C1C(C=NC2CC2)=C(O)c2ccccc21	inconclusive: 29.1 µM [falling, single point]	
COc1ccc2cc(C(=O)NCc3ccc4c(c3)CCN4C(=O)c3ccc(C)cc3)[nH]c2c1		inactive: -1.33%
Clc1ccc(C#Cc2cccnc2)cc1		inconclusive: 16%
O=C(CSc1nnc(C2CC2)n1C1CC1)c1ccc(Br)s1		inactive: -0.616%
Fc1ccccc1CNc1ncnc2sccc12		inactive: -14.1%
O=C(COC(=O)c1ccc(F)c(S(=O)(=O)N2CCOCC2)c1)Nc1ccc2[nH]c(=O)[nH]c2c1		inconclusive: 7.25%
CCOC(=O)C1CCCN(S(=O)(=O)c2ccc3c(c2)CC(C)N3C(=O)C2CC2)C1 (configuration not stated)		inactive: 5.43%
O=C(CS(=O)CC(=O)Nc1cnc2ccccc2c1)Nc1ccc(Cl)cc1 (configuration not stated)		inconclusive: -28.4%
